Measured values taken from patent US12257247B2 (Monte Rosa Therapeutics AG, priority 2023, dated 2025).
For at least one compound, name, drawing or mass did not settle the structure.

Columns and labels:
[1] = tested on: C57BL/6 mice, MOG35-55-induced EAE; assay: MOG35-55-induced EAE mouse model, dose dependence, clinical score (Example G); format: in vivo; conditions: Dexamethasone 1 mg/kg PO QD, day 0 to day 13; FIG. 6A
[2] = tested on: C57BL/6J mice, MOG35-55-induced EAE; assay: MOG35-55-induced experimental autoimmune encephalomyelitis (EAE) mouse model, clinical score (Example F); format: in vivo; conditions: Dexamethasone 1 mg/kg PO QD day 12 to day 18; FIG. 5

SMILES: C[C@@H]1C[C@H]2[C@@H]3CCC4=CC(=O)C=C[C@]4(C)[C@@]3(F)[C@@H](O)C[C@]2(C)[C@@]1(O)C(=O)CO [Dexamethasone]
- clinical EAE score [1]: prevented the progression of EAE disease
- clinical EAE score [2]: prevented the progression of EAE disease
